Results published in US20230098202A1 (priority 2020, published 2023).

Columns and labels:
[1] = test system: Rhizoctonia solani; type: cell-based
[2] = test system: Fusarium oxysporum
[3] = test system: Phytophthora infestans; conditions: tomato plants, greenhouse, spraying
[4] = test system: Pythium aphanidermatum; type: cell-based
[5] = test system: Botrytis cinerea
[6] = test system: Puccinia sorghi; type: cell-based
[7] = test system: Phytophthora infestans; type: cell-based; conditions: Phytophthora infestans on tomato leaf discs; activity grade x repeats/12 x100
[8] = test system: Alternaria alternata
[9] = test system: Alternaria solani; conditions: tomato plants, greenhouse, preventative spraying, Formulation 2
[10] = test system: Botrytis cinerea; conditions: tomato plants, greenhouse, preventative spraying, Formulations 1 and 2
[11] = test system: Puccinia sorghi; test: In planta validation: Puccinia sorghi infection of corn seedlings; type: in vivo, Puccinia sorghi on corn; conditions: controlled growth conditions, growth rooms, spraying
Source text: Protocol name: Puccinia sorghi infection of corn seedlings test General description: Inoculation on corn, collection, Puccinia sorghi spores' suspension preparation and 1-phenyl-tetralin compounds 1 or 3 bioactivity evaluation against Puccinia sorghi.
• 1) Use: 120×80×80 mm pots, standard garden soil with fertilizer and corn seeds of a rust sensitive variety. • 2) Put pots in a tray and fill the pots with the soil to the top. • 3) Make a small grove for the seeds. • 4) Plant about 10 seeds of corn in each pot. • 5) Cover the seeds with additional soil. • 6) Add water into the tray—about 100 ml for each pot (fill the tray 3 times). • 7) Grow the corn for 8 days in growth room at 22° C. (until the second leaf is emerged). B. Preparation of Spore Suspension [from Corn Leaves] for Inoculation • 1) Insert 20 infected corn leaves with spores into a sterile 50-ml tube. • 2) Add 50 ml of cold 0.05% Tween® 20 solution. • 3) Insert the tube into a sealed, ice cold plastic box. • 4) Shake the box using a shaker for 15 min at 3000 RPM. • 5) Transfer the suspension (without the leaves) into a clean sterile 50-ml tube. • 6) Filter the spore suspension through 16 layers of gauze into another sterile 50-ml tube. • 7) Keep the tube with the spore suspension on ice. • 8) Wash and concentrate the spores on a 5-micron membrane filter. […]

CN[C@H]1CCC(c2ccc(Cl)c(Cl)c2)c2ccccc21.Cl (stereo in doubt) [Compound 3, (1S,4R)-4-(3,4-dichlorophenyl)-N-methyl-1,2,3,4-tetrahydronaphthalen-1-aminium chloride]
Relative Activity value (%) [1]: 25%
Relative Activity value (%) [2]: 16%
efficacy in controlling Phytophthora infection [3]: up to 100%
Relative Activity value (%) [4]: 10%
Relative Activity value (%) [5]: 100%
Relative Activity value (%) [6]: 100%
Relative Activity value (%) [7]: 100%
Relative Activity value (%) [8]: 100%
efficacy in controlling Alternaria infection [9]: up to 75.8%
efficacy in controlling Botrytis infection [10]: up to 100%
efficacy in preventing and controlling Puccinia sorghi in corn plants (in words) [11]: very good efficacy
